Data on ten molecules can be found in PMC12155601.

Sequences of proteins named here, by UniProt entry; tags and fusion partners are left off. A change or cut given only in a name is not applied to a line headed by its entry.
UniProt Q7ZYC1: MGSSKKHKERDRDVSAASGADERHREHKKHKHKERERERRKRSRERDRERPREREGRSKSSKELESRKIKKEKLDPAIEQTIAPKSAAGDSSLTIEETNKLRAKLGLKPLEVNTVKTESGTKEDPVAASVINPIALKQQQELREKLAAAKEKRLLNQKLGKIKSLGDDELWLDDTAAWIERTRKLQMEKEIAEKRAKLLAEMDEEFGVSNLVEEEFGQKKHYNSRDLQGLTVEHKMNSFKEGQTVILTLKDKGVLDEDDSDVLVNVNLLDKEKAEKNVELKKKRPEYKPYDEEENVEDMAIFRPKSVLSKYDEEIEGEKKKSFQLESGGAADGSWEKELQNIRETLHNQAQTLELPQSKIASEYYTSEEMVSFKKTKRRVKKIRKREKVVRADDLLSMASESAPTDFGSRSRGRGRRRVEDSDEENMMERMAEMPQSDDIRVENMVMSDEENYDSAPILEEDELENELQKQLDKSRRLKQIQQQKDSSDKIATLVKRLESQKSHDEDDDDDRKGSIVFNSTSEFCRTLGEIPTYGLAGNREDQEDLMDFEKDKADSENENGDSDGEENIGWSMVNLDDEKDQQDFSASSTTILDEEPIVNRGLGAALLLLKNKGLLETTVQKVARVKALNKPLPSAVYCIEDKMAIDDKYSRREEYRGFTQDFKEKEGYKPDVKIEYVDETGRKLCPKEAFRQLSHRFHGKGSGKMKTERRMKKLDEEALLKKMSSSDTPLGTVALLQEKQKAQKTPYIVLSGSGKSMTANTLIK
UniProt P70032: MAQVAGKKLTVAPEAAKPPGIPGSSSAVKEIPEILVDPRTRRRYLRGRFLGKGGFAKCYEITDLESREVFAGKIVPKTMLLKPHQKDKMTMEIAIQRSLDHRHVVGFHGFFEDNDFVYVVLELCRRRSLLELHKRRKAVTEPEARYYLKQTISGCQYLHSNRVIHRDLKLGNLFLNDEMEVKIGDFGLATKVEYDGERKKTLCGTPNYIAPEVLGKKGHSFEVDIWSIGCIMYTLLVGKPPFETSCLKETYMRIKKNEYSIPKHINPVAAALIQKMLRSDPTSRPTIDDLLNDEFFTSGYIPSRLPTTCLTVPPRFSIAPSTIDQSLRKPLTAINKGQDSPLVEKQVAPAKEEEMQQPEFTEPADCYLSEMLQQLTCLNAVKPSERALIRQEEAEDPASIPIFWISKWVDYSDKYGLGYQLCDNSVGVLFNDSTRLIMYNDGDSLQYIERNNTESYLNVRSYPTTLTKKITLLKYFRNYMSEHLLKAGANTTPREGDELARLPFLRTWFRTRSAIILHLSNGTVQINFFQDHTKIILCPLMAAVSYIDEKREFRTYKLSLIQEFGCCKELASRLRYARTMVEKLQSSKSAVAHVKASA
UniProt Q498G2: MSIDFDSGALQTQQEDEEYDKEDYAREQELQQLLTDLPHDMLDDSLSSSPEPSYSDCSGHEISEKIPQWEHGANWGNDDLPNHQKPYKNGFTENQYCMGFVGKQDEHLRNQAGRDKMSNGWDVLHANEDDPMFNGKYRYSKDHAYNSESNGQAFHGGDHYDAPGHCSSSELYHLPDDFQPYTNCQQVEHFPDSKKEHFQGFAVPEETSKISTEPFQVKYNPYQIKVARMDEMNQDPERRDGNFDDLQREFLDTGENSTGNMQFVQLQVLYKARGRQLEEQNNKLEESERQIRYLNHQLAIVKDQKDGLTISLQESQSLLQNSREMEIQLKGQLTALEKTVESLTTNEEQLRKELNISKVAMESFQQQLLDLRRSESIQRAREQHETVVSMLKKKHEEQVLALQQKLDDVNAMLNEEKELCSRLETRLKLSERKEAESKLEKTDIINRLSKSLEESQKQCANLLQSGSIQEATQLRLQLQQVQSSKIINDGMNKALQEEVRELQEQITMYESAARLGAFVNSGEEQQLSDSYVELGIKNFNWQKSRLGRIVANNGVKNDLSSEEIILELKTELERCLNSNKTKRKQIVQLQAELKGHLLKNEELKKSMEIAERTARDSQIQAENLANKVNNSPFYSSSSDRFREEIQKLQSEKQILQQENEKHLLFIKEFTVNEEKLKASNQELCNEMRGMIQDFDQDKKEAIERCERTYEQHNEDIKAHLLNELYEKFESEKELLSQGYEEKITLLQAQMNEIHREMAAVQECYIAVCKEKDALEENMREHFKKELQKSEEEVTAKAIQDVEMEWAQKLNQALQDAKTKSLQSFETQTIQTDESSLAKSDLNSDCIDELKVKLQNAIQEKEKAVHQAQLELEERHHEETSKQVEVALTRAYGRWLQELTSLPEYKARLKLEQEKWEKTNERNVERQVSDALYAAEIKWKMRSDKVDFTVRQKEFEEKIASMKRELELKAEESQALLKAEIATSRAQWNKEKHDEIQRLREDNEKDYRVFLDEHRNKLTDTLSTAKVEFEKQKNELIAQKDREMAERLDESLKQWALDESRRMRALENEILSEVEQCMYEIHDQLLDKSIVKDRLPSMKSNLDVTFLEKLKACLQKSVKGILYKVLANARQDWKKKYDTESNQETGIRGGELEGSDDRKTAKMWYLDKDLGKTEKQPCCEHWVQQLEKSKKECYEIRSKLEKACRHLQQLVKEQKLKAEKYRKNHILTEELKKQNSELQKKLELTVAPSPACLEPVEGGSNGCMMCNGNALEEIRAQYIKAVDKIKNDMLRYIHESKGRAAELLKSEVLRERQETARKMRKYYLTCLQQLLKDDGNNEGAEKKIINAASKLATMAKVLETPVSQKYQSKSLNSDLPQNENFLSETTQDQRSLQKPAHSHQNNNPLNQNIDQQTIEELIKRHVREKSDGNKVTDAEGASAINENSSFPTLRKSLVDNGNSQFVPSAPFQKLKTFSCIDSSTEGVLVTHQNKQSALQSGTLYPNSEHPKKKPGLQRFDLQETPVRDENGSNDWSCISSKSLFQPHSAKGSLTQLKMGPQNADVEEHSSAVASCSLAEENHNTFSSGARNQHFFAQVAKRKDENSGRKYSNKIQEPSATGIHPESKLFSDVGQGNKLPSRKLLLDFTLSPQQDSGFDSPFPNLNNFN
UniProt P45429: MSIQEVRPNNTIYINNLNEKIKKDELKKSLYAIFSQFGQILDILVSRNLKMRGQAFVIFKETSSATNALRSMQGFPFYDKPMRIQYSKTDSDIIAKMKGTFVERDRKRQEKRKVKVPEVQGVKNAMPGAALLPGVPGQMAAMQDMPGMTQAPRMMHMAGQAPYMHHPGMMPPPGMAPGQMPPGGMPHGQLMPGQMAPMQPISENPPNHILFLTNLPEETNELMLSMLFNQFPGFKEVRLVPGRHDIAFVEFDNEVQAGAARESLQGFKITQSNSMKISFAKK
UniProt P70039: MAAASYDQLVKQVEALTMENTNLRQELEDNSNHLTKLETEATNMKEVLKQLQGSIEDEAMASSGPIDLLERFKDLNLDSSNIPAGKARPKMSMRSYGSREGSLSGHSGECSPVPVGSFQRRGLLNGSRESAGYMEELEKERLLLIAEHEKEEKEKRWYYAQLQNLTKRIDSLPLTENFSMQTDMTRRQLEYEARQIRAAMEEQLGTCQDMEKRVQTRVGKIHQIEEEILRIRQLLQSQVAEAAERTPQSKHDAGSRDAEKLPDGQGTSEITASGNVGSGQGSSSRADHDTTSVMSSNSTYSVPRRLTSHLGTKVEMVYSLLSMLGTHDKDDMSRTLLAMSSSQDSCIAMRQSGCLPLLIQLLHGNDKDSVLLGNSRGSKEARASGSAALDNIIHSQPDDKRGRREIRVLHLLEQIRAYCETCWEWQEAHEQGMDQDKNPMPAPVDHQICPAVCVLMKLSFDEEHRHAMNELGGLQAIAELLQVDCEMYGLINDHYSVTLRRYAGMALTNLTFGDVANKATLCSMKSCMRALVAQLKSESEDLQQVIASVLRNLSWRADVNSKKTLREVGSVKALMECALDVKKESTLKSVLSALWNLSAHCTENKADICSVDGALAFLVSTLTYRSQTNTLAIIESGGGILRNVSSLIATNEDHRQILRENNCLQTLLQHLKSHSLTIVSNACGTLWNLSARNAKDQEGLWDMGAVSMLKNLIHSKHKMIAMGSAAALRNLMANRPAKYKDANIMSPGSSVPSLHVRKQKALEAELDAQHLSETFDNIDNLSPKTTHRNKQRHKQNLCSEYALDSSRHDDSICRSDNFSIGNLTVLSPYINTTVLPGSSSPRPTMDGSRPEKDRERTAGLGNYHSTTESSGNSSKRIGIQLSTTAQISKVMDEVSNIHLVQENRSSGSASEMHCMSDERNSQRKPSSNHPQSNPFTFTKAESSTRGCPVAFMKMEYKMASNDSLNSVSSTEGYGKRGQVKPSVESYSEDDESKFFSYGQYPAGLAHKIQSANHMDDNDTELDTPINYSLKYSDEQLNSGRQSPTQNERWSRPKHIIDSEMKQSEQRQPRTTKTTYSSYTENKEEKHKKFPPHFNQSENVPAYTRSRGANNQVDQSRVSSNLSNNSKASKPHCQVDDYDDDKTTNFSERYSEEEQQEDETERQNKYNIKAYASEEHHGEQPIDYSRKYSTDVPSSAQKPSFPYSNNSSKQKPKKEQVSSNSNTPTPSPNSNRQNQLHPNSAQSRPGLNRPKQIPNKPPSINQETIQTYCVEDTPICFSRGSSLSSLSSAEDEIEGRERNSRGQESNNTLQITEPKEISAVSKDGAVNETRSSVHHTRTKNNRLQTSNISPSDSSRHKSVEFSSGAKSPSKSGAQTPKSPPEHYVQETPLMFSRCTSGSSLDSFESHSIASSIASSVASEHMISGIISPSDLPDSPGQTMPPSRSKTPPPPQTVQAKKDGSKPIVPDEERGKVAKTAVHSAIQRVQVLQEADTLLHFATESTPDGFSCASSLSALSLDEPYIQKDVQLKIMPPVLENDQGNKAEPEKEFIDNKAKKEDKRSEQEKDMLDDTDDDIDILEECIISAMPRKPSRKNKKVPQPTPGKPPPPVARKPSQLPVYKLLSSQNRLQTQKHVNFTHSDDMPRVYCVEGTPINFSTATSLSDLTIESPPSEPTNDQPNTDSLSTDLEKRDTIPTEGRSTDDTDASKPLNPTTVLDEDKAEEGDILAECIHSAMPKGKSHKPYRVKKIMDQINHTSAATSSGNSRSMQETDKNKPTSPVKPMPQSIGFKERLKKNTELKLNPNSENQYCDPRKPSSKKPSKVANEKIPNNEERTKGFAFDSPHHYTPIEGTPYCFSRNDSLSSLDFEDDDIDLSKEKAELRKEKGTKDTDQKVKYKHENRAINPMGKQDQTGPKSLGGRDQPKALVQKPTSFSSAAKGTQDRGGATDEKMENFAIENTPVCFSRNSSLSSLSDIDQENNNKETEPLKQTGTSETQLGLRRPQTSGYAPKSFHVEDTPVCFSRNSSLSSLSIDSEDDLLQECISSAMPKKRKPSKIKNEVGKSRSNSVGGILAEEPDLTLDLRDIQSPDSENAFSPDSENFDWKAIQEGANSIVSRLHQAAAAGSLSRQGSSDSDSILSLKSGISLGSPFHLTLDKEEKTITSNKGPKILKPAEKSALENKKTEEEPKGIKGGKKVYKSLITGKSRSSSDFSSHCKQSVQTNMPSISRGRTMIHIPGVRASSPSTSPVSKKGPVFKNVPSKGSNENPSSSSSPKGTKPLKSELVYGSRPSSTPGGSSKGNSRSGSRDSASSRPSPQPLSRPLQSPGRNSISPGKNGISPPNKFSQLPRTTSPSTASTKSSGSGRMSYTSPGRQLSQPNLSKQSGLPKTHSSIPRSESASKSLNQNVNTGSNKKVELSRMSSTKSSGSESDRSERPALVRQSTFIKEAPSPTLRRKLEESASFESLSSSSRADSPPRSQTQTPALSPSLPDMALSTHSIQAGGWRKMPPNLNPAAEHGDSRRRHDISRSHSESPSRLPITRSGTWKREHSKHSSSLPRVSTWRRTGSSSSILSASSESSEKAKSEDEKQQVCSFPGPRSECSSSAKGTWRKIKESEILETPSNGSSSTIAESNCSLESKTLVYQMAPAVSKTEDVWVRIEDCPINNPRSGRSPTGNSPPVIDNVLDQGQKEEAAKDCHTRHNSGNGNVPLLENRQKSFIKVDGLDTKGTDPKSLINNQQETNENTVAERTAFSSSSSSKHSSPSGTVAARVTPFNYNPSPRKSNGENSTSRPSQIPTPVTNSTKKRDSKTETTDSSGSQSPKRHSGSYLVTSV

The test addresses Xenopus SART1, endogenous (Xenopus laevis (endogenous in egg extracts)) (UniProt Q7ZYC1). The experiment in a line: affinity purification with mass spectrometry; SART1 immunoprecipitated from Xenopus CSF egg extract with Xenopus SART1 antibody cross-linked to Dynabeads protein A, 4 °C 60 min, washed with CSF-XB and CSF-XB with 0.5 M KCl and 0.1% Triton X-100; eluted with 0.1 M triethylamine pH 11.5; shotgun mass spectrometry; three biological repeats.

Results are given in words; binding and its absence hold for the method and conditions named. Binding seen in cells or lysates may run through a third protein. Here binding means that the protein was enriched with, or labelled near, the bait; the list need not be complete.

Consider SNRNP70 (from UniProt P09406 1-471), for which the binding result is “binds”.
For Plk1 (from UniProt P70032 1-598), the binding entry was “binds”.
Consider Cep152 (from UniProt Q498G2 1-1663), for which the binding result is “binds”.
Take SNRPA (from UniProt P45429 1-282): the binding entry is given as “binds”.
APC (from UniProt P70039 1-2829): the binding result is reported as “binds”.

B1: Cep97 (protein, UniProt Q6GPJ8 1-807)
chain: MAVAHLACDSQGSVVDLSGQGLQKLSPTLPFGNDTQTLILDKNQIIKLEHVEKCRNLVQLSVANNRLVRMMGVAKLIHLRVLNLPHNSIGYVEGLKDLVHLEWINLAGNNLKIIDQINSSTSLQHLDLSDNNISQIGDLSKLKSLKTLLLHGNNIASLRAASACLPQSLTILSLAENEIRDLNEVAFLAGLVDLEQLSIMNNPCVMATPSIPGFDYRPFIVSWCLNLKVLDGYVVSQKESLKAEWLYSQGKGRSYRLGQHIPLVQYLATVCPLTSAHGLQTEEDAKLDKILSKQRLHQKQLLHQTRSDGYLTSSTPNKRLPLSTEHHSPTHVLQTEPTVQVNNWLRSSSSEDHSYAVRNICSSPFGPPHYSSLYMEDIQTDEDKLNCSLLSSESTFMPVAPGLSPVSPTVELRVPAIKADLPVNETVIEFNKDHTELPPSETPEKPKLIPGLSAMQDDKSCCVYPVIKDENVTENIINCETAVSMESTQTSNGPTCHNLIMNCKQASVLDQDVNHINKISKAATKLQSCWRGFYARKYNPKVKDVCYEIRLSRMQEHIVFLTEEVIRLRKEKEEDRIQRILQGEAVRYLWEQVQAIQQWQNTVKLQTANSSENDLPSASNSKHANPALEELPSSPEKLNRKASPDIPDSGFHSVILNHCTMGNTEKNSSEESEYSQPSLDTGRHYNDKVPDSPADQDLTREEQSQSSKDSFTSEQDSSLLQQYLRSVEQLDETADNTSYSERTEESRPEITTCSDNSDLSCSISHFLPENSKQENIDIHSNLPSIDDGHNTPIPCDSSLLVPQPDLV
Regarding B1, the binding entry is recorded as “binds”.

B2: DDX42 (protein, UniProt Q7ZY47 1-947)
chain: MNWNKGGSGNKRGFGFGGFAISTGKKEEPKLPQVSHSAFQSASSKYGSTSNQLPSFYKIGSKRANFDEENSYFDDEEEDSSNVDLPYIPAENSPTRQQLRSKTDSDSEEDPLEAFMAEVEDQAAKDMRKLEERDKEKANARGIRDDIEEEDDQEAYFRYMAENPTAGLVPEEEEDNLEYDSDGNPIAPTTKRIIDPLPPIDHTEIEYPPFEKNFYEEHEAITSQTPQQITELRHKLNLRVSGAAPPRLCSSFAHFGFDEQLLHQIRKSEYTQPTPIQCQGIPVALSGRDMIGIAKTGSGKTAAFIWPILVHIMDQKELQPADGPIAVIVCPTRELCQQIHSECKRFGKAYNLRSVAVYGGGSMWEQAKALQEGAEIVVCTPGRLIDHVKKKATNLQRVTYLVFDEADRMFDMGFEYQVRSIANHVRPDRQTLLFSATFRKKIEKLARDILVDPIRVVQGDIGEANEDITQVVEILPSGPEKWTWLTRRLVEFTSTGSVLVFVTKKANAEELAANLRQDDHPLGLLHGDMDQSERNKVISDFKKKSIPVLVATDVAARGLDIPSIKTVVNYDVARDIDTHTHRIGRTGRAGEKGVAYTLLTSKESNFAGDLVRNLEGANQYVSKELLDLAMQNSWFRKSRFKAGKGKKLNIGGGGLGYRERPGLGAESSEHGTGGNVMSNYEAFKPSGGAMGDRLSAMKSAFQSQYKNHFVAASASTQKTGTSSINSGAWTSAGSLSSVPSAHPPSGKLPAEAAPPPVHTAMLGFTSSGTLSSIPTGYPANISSASYPAATLFGARDGASAGTESGGRERHSDSKGRHGDSHRPSDREGYRHGDGHRHSSSSRHGERNGGEGRRESSRDGRRDSSRDGESRRDGSRDGGEGRRESSRDGEGRRESSRDGDGRRESSGDGRREVVGDDGDSRKEGTREAKTDTFAIPVPPKRKKSRWDS
Take B2: the binding result is recorded as “binds”.

B3: SF3B1 (protein, UniProt O57683 1-1307)
chain: MAKVAKTHEDIEAQIREIQGKKAALDEEEGVGLDSTGYFDQEIYGGSDSRFTGYVTSIAANEQEDDDDDVSSATFEQKKPGYHAPVALLNDIPQSTEQYDPFAEHRPQKIANREDEYKQQRRKMIISPERLDPFADGGKTPDPKLNARTFKDVMQEQYLTKEEREIRQQIAEKAKSGDLKVVNGSSASSAAQPPSKRKRRWDQTGDQTPGSTPKKLSSWDQAEVTPGHTPSSLRWDETPGRAKGNETPGATPGSKIWDPTPSHTPAGVATPGRGDTPGHVTPGHSGATSSARKNRWDETPKTERDTPGHGSGWAETPRTDRGGDSIGETPTPGASKRKSRWDETPASQMGGSTPVLTPGKTPIGTPAMNMATPTPGHIMSMTPEQLQAWRWEREIDERNRPLSDEELDAMFPEGYKVLPPPAGYVPIRTPARKLTATPTPLGGLTGFHMPTEDRSMKSVSDQPSGNLPFLKPDDIQYFDKLLVDVDESTLSPEEQKERKIMKLLLKIKNGTPPMRKAALRQITDKAREFGAGPLFNQILPLLMSPTLEDQERHLLVKVIDRILYKLDDLVRPYVHKILVVIEPLLIDEDYYARVEGREIISNLAKAAGLATMISTMRPDIDNMDEYVRNTTARAFAVVASALGIPSLLPFLKAVCKSKKSWQARHTGIKIVQQIAILMGCAILPHLRSLVEIIEHGLVDEQQKVRTISALAIAALAEAATPYGIESFDSVLKPLWKGIRQHRGKGLAAFLKAIGYLIPLMDAEYANYYTREVMLILIREFQSPDEEMKKIVLKVVKQCCGTDGVEANYIKTEILPPFFKHFWQHRMALDRRNYRQLVDTTVELANKVGAAEIISRIVDDLKDEAEQYRKMVMETIEKIMGNLGAADIDHKLEEQLIDGILYAFQEQTTEDSVMLNGFGTVVNALGKRVKPYLPQICGTVLWRLNNKSAKVRQQAADLISRTAVVMKTCQEEKLMGHLGVVLYEYLGEEYPEVLGSILGALKAIVNVIGMHKMTPPIKDLLPRLTPILKNRHEKVQENCIDLVGRIADRGAEYVSAREWMRICFELLELLKAHKKAIRRATVNTFGYIAKAIGPHDVLATLLNNLKVQERQNRVCTTVAIAIVAETCSPFTVLPALMNEYRVPELNVQNGVLKSLSFLFEYIGEMGKDYIYAVTPLLEDALMDRDLVHRQTASAVVQHMSLGVYGFGCEDSLNHLLNYVWPNVFETSPHVIQAVMGALEGLRVAIGPCRMVQYCLQGLFHPARKVRDVYWKIYNSIYIGSQDALIAHYPRIYNDEKNTYIRYELDYTL
For the molecule B3, the binding result is “binds”.

B4: Cep44 (protein, UniProt A2RVA7 1-384)
chain: MATGDVKGCIRKLEQRLRTLNYPRDVDYTGLIKGDPSASLPIISYTFTCYSTSIAEILISFGIELTTKSDLRFIEAVYKVLRDVFNYKPILTKQQFLQCAFSERKIQIICDIVDCVVKKHKEITGQNKVKSQLVKKVVSAKDQCEVFYPEDVSVQPSVKTTQKKPLVERHAGSEFLLPTKCYSSALVEDIEEEEPTSDSEGGSHLEHEMESPFETAETTPNSEQIELLRKQLAECQEKLQRLDCVEQRLQSLETSMKGKIIIDETDWNNLLSRVLLLETEGLLQSKKTDFSVPSEFACISEQRTSSRMTNEICSNLKTKADIPESHHQSSGYSFVLSADTSPIAIDINYSSLTEDSNETTKQRMERITKMMEETSKLLKCSNNT
For B4, the binding result is “binds”.

B5: POC5 (protein, UniProt Q6DFB7 1-572)
chain: MSSDEEYRESPILPKDSDHGSSVSSDLQDEYDELLRYAVVTPRFGPHFPEQNQLFTEQIKSDRFSSPKDPVQEQSLARNYSEENIPECSATSTSQRRSPPTANEEERAMSEKKSFLSGLEAFSPLHSEDLSLGGSTSSGSQVQQVRVKELPVPAENMDKVEDVLDLWSGTLKTNVMAELSKWRLTVIEQHKLEIKNQNEKHAEQISQLSSQIDKLQDHLQTYETSIQRKDEVISNLTHALEKHKEKMELMRTFTHWRLQLTEAREEDYARSLADRHYRNTLMKNAWKAWHSVIQSNWKDKIEQACRARAEEVCIELSNDYESKLTQLNSALGEARAEVQRLLAERGQFEGSMKKAFMRGVCALNMEAMSMFQGRESRMEYDPPPRREERDPSPSVTFQNPPVTSTHTSSTQHELQSALHSPVTCEPNYIHAFGPSTVSQSKEEAGAPAVISAATSASSVLSTQKLPMPRVVTSCQQKAGKIITARISARPDVSQRSSKIGSNITSMAVSPPISSIVVEKHHPVTQQTISQAAAAKYPRSALQSANSVGGRSTGQSGRVSQSHAGIHSIKVVD
B5: the binding result is listed as “binds”.
